From the supplement of paper PMC10849652
The list shows a part of the results.

Sequences of proteins named here, by UniProt entry; tags and fusion partners are left off. A change or cut given only in a name is not applied to a line headed by its entry.
UniProt P60660, whole entry, looked up: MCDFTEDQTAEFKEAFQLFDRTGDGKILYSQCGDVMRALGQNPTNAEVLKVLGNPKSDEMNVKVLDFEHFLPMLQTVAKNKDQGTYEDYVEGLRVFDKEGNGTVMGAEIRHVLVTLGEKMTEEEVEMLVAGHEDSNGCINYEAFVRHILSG
UniProt P42285: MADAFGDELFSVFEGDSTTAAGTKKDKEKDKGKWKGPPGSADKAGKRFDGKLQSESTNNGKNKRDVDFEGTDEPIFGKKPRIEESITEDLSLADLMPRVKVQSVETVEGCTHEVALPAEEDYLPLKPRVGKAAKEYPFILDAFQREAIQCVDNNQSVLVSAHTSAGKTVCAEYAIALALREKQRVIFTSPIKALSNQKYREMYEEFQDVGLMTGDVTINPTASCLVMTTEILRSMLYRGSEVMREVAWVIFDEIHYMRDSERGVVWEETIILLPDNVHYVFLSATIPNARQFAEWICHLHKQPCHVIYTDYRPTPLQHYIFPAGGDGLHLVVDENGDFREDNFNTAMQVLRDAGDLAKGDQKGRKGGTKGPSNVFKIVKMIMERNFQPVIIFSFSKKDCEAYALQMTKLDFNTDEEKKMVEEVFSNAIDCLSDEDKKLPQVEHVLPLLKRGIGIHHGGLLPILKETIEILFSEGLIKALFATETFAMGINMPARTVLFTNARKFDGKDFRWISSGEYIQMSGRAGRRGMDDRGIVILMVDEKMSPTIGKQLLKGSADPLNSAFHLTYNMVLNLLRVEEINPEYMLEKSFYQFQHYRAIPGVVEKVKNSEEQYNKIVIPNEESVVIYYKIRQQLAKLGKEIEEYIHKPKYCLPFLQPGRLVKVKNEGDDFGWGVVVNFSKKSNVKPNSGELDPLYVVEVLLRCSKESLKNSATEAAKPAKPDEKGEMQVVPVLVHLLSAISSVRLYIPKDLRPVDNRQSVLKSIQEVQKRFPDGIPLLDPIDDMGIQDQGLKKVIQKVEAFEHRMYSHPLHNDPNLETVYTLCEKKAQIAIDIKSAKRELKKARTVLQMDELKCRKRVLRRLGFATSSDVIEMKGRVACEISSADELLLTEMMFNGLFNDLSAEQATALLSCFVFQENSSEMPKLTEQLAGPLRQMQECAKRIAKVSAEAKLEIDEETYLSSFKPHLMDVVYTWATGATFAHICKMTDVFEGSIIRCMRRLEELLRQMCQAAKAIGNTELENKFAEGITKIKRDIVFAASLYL
UniProt Q969V6: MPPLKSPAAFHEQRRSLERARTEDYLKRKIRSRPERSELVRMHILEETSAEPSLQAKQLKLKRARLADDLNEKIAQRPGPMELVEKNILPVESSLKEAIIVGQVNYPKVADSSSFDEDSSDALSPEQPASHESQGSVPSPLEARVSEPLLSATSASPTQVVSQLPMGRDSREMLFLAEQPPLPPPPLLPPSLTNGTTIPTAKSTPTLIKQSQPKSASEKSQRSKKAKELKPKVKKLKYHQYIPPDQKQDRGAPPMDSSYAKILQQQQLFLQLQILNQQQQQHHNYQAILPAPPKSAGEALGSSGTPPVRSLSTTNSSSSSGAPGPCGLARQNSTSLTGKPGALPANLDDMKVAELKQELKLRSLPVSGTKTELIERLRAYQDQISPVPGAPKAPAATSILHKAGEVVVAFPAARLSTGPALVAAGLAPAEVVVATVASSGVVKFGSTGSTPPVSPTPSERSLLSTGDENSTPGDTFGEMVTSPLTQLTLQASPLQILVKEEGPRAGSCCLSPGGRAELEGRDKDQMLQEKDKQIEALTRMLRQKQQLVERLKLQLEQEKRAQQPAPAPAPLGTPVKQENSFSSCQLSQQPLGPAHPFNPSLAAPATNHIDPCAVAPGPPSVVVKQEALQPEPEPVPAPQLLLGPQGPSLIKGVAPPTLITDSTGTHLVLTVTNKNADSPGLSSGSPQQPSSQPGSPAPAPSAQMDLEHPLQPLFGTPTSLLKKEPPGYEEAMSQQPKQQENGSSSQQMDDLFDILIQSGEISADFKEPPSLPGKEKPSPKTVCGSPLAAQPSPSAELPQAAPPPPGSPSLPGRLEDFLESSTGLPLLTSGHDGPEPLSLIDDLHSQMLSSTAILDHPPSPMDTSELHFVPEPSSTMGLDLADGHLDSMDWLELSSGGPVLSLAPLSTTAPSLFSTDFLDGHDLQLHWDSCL
UniProt Q9NZJ7, whole entry, looked up: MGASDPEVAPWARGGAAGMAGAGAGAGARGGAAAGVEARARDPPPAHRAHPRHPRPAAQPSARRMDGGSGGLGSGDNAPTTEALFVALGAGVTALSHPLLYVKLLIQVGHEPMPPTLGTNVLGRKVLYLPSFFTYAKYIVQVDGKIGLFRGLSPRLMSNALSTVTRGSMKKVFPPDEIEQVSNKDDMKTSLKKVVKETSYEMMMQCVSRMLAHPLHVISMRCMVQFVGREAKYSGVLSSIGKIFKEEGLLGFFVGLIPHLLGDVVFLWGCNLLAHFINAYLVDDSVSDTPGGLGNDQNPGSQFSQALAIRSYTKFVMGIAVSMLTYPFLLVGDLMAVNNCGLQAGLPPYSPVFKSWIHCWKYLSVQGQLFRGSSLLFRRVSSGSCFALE
UniProt O43347: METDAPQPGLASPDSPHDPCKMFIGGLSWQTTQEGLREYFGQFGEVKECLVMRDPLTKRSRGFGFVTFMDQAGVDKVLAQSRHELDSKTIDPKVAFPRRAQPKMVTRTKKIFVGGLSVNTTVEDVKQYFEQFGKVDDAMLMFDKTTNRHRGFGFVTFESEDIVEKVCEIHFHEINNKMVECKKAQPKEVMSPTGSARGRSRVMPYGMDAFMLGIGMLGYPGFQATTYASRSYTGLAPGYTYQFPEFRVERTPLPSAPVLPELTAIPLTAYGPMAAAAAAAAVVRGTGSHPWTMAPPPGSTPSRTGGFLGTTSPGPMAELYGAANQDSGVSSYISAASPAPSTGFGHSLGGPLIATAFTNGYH
UniProt Q96S97: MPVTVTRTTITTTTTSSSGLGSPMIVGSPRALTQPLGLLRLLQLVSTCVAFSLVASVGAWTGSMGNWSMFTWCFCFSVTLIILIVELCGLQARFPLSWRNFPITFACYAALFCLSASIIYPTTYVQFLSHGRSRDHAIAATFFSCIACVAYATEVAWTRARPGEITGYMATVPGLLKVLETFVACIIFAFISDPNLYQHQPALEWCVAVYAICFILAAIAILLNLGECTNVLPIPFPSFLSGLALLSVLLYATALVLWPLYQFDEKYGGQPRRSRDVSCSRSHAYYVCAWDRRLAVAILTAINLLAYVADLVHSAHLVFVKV
UniProt Q9UBK8: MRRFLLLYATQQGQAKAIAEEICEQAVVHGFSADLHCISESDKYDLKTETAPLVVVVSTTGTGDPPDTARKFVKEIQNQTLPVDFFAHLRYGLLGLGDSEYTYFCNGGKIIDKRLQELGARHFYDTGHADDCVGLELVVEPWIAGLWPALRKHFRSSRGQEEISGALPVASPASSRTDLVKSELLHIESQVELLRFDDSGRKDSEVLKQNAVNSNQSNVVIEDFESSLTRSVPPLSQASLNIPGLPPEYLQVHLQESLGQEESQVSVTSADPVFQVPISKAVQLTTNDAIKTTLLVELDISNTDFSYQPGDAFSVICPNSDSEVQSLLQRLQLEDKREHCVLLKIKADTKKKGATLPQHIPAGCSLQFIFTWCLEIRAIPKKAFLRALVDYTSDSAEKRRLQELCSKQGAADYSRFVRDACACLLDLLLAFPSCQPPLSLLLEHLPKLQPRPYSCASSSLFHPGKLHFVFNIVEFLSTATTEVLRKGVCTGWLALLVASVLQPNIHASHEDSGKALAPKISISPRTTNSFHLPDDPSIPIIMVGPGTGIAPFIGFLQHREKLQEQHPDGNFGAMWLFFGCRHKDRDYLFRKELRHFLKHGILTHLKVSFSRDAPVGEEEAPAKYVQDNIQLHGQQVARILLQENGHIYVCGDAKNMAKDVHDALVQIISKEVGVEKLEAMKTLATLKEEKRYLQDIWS
UniProt Q99707: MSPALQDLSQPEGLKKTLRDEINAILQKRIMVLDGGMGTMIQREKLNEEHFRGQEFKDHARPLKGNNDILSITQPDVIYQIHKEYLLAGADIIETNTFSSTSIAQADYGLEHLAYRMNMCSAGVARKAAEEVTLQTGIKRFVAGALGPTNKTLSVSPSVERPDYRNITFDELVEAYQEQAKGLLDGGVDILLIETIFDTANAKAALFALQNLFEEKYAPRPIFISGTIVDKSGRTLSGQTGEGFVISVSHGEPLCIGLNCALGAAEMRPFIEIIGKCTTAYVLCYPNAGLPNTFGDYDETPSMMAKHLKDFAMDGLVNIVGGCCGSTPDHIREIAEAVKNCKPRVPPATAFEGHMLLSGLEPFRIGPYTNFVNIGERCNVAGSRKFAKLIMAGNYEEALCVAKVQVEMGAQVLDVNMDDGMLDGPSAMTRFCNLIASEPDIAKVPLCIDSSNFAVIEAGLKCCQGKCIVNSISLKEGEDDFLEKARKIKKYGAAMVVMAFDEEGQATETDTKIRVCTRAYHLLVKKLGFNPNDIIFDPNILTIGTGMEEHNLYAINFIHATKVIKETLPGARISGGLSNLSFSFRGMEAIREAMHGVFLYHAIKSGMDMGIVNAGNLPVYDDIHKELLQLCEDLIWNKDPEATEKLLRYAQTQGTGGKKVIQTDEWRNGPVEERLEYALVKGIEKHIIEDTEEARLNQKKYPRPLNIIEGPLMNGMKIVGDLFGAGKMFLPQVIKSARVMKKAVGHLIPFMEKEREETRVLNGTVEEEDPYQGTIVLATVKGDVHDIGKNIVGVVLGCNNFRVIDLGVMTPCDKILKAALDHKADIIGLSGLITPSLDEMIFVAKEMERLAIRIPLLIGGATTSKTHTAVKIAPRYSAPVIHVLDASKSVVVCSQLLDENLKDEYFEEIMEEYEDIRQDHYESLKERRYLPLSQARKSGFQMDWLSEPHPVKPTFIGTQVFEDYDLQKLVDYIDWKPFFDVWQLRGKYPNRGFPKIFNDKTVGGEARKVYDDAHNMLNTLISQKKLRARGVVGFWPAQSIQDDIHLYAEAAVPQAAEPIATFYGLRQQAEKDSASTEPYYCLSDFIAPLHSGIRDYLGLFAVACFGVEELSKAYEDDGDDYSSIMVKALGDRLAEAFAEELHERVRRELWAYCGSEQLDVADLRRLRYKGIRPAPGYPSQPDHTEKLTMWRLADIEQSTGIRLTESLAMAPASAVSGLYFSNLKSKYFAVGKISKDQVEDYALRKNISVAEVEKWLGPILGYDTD
UniProt P42898: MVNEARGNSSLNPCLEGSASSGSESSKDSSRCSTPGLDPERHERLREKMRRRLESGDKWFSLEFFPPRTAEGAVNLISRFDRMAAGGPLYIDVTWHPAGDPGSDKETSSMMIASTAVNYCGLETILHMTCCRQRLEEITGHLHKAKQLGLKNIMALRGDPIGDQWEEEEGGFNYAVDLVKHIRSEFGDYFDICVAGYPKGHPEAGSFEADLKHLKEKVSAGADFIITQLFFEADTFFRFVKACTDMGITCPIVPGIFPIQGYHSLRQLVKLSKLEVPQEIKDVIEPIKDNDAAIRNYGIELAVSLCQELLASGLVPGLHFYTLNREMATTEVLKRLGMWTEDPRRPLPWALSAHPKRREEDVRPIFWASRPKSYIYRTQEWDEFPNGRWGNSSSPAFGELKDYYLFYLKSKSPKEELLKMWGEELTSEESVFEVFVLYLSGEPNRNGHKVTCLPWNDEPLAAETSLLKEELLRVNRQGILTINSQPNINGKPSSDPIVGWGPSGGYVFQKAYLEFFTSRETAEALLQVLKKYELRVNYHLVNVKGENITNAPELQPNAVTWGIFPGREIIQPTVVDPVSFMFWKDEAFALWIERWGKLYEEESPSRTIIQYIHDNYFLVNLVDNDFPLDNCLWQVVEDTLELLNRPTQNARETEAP
UniProt Q969V5: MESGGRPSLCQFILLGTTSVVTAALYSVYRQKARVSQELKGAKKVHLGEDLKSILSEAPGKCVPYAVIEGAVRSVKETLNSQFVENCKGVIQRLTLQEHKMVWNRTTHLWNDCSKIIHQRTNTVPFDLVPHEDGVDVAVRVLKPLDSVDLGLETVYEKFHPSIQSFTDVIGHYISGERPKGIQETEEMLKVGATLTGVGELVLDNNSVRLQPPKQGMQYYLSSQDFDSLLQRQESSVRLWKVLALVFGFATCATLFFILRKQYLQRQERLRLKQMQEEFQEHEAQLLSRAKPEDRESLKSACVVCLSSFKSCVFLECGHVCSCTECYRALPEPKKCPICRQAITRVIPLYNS

Tests used:
Test in all cases: log2 fold change, soluble protein after heating vs DMSO (PISA); higher = thermal stabilisation; K562 cells, 10 uM, 30 min; active = over 0.2 and 3.5 SD of the protein, either way, in both replicates (recomputed)
[1] = compound: CC1=C(C=C(C=C1)NC(=O)C2=CC(=CC=C2)C(C)(C)C#N)NC3=CC4=C(C=C3)N=CN(C4=O)C
Summary of the method: (§1)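 Soluble protein was quantified by TMTpro 16plex LC-MS/MS after channel sums were equalised. It was obtained as the supernatant after 21,000xg for 90 min from pooled aliquots of K562 cells (2×10^6 cells/mL, 10 μM compound, 30 min) heated for 3 min across 48°C-58°C and extracted in PBS with 0.5% NP-40 at 4°C. Thermal stability values are relative to control samples and come from duplicates. They are given as log2 fold changes.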

[2] = compound: CC1=C(C=C(C=C1)NC(=O)C2=CC(=CC=C2)N(C)C)NC(=O)C3=CC=C(C=C3)O
Summary of the method: as §1

[3] = compound: CC1=CC=C(C=C1)SC2=C3C=C(SC3=CN=C2)C(=O)N
Summary of the method: as §1

[4] = compound: CC1=NC(=CC=C1)C2=C(N=C(N2)C(C)(C)C)C3=CC4=NC=CN=C4C=C3
Summary of the method: as §1

Nexturastat A = compound: CCCCN(Cc1ccc(C(=O)NO)cc1)C(=O)Nc1ccccc1 [Nexturastat A]
Summary of the method: as §1

vemurafenib = compound: CCCS(=O)(=O)Nc1ccc(F)c(C(=O)c2c[nH]c3ncc(-c4ccc(Cl)cc4)cc23)c1F [vemurafenib]
Summary of the method: as §1

[5] = compound: CCCS(=O)(=O)Nc1ccc(F)c(C(=O)c2c[nH]c3ncc(Cl)cc23)c1F
Summary of the method: as §1

[6] = compound: CCCc1cc(C)[nH]c(=O)c1CNC(=O)c1cc(-c2ccnc(N3CCN(C)CC3)c2)cc2c1cnn2C(C)C
Summary of the method: as §1

givinostat = compound: CCN(CC)Cc1ccc2cc(COC(=O)Nc3ccc(C(=O)NO)cc3)ccc2c1 [givinostat]
Summary of the method: as §1

barasertib = compound: CCN(CCCOc1ccc2c(Nc3cc(CC(=O)Nc4cccc(F)c4)[nH]n3)ncnc2c1)CCOP(=O)(O)O [barasertib]
Summary of the method: as §1

[7] = compound: CC[C@@H]1C(=O)N(C)c2cnc(Nc3ccc(C(=O)NC4CCN(C)CC4)cc3OC)nc2N1C1CCCC1
Summary of the method: as §1

volasertib = compound: CC[C@@H]1C(=O)N(C)c2cnc(Nc3ccc(C(=O)N[C@H]4CC[C@H](N5CCN(CC6CC6)CC5)CC4)cc3OC)nc2N1C(C)C [volasertib]
Summary of the method: as §1

[8] = compound: CC[C@H](C)N1C=C(C2=C(C=C(C=C21)C3=CN=C(C=C3)N4CCNCC4)C(=O)NCC5=C(C=C(NC5=O)C)C)C
Summary of the method: as §1

epoxomicin = compound: CC[C@H](C)[C@@H](C(=O)N[C@@H]([C@@H](C)O)C(=O)N[C@@H](CC(C)C)C(=O)[C@]1(CO1)C)NC(=O)[C@H]([C@@H](C)CC)N(C)C(=O)C [epoxomicin]
Summary of the method: as §1

[9] = compound: CCn1c(C(=O)N(C2CC2)C2CC2)cc2c3c(ncn3C)c(Nc3cc(C)n(C)n3)nc21
Summary of the method: as §1

[10] = compound: CCn1cc(-c2ccnc3[nH]c(-c4cccc(CN(C)C)c4)cc23)c(-c2ccc(NC(=O)N(C)C)cc2)n1
Summary of the method: as §1

[11] = compound: CN(C)CC(=O)Nc1ccc2[nH]c(=O)c3ccccc3c2c1
Summary of the method: as §1

rosiglitazone = compound: CN(CCOC1=CC=C(C=C1)C[C@H]2C(=O)NC(=O)S2)C3=CC=CC=N3 (racemic) [rosiglitazone]
Summary of the method: as §1

[12] = compound: CN1C2=C(C3=C1C(=O)N(N=C3)CC4=CC(=CC=C4)N)SC(=C2)S(=O)C
Summary of the method: as §1

[13] = compound: CN1CCC(CNc2ccc3ncc(-c4cccc(OC(F)(F)F)c4)n3n2)CC1
Summary of the method: as §1

Measured: log2 fold change

MYL6 isoform 2 (UniProt P60660)
inactive: [1] 0.031 | [2] -0.018 | [3] -0.022 | [4] 0.05 | Nexturastat A 0.03 | vemurafenib 0 | [5] -0.014 | [6] -0.021 | givinostat 0.024 | barasertib 0.086 | [7] -0.055 | volasertib -0.126 | [8] 0.059 | epoxomicin 0.051 | [9] 0.04 | [10] -0.013 | [11] 0.021 | rosiglitazone -0.01 | [12] -0.025 | [13] -0.003

MRPL9 (UniProt Q9BYD2)
inactive: [1] 0.104 | [2] -0.118 | [3] -0.055 | [4] -0.014 | Nexturastat A 0.237 | vemurafenib -0.042 | [5] -0.027 | [6] 0.146 | givinostat 0.04 | barasertib -0.065 | [7] 0.039 | volasertib 0.193 | [8] 0.035 | epoxomicin 0.066 | [9] -0.013 | [10] -0.024 | [11] 0.047 | rosiglitazone 0.002 | [12] 0.082 | [13] 0.028

MTREX (UniProt P42285)
inactive: [1] -0.028 | [2] -0.026 | [3] 0.007 | [4] 0.011 | Nexturastat A 0 | vemurafenib -0.008 | [5] 0.016 | [6] -0.02 | givinostat 0.015 | barasertib 0.015 | [7] 0.016 | volasertib -0.037 | [8] 0.033 | epoxomicin 0.037 | [9] -0.014 | [10] -0.085 | [11] 0.015 | rosiglitazone 0.046 | [12] -0.046 | [13] 0.121

MRTFA (UniProt Q969V6)
inactive: [1] 0.011 | [2] -0.096 | [3] -0.036 | [4] 0.06 | Nexturastat A -0.018 | vemurafenib -0.148 | [5] 0.032 | [6] 0.032 | givinostat 0.045 | barasertib -0.02 | [7] -0.084 | volasertib -0.064 | [8] 0.002 | epoxomicin 0.074 | [9] 0.039 | [10] 0 | [11] -0.129 | rosiglitazone 0.035 | [12] 0.021 | [13] -0.092

MTA1 (UniProt Q13330)
inactive: [1] 0 | [2] -0.001 | [3] 0.012 | [4] -0.031 | Nexturastat A -0.055 | vemurafenib 0.126 | [5] 0 | [6] 0.033 | givinostat 0.049 | barasertib 0.05 | [7] -0.071 | volasertib -0.096 | [8] 0.081 | epoxomicin -0.003 | [9] -0.108 | [10] -0.037 | [11] 0.127 | rosiglitazone -0.01 | [12] 0.079 | [13] 0.047

MTCH1 (UniProt Q9NZJ7)
inactive: [1] 0.051 | [2] -0.003 | [3] -0.042 | [4] 0.047 | Nexturastat A -0.094 | vemurafenib 0.04 | [5] -0.009 | [6] -0.05 | givinostat -0.024 | barasertib -0.018 | [7] 0.054 | volasertib 0.064 | [8] -0.018 | epoxomicin -0.035 | [9] -0.004 | [10] -0.038 | [11] -0.016 | rosiglitazone -0.002 | [12] -0.108 | [13] 0.104

Reprinted at random: two records from the list.
MRPL9 (UniProt Q9BYD2)
inactive: [1] 0.104 | [2] -0.118 | [3] -0.055 | [4] -0.014 | Nexturastat A 0.237 | vemurafenib -0.042 | [5] -0.027 | [6] 0.146 | givinostat 0.04 | barasertib -0.065 | [7] 0.039 | volasertib 0.193 | [8] 0.035 | epoxomicin 0.066 | [9] -0.013 | [10] -0.024 | [11] 0.047 | rosiglitazone 0.002 | [12] 0.082 | [13] 0.028

MRTFA (UniProt Q969V6)
inactive: [1] 0.011 | [2] -0.096 | [3] -0.036 | [4] 0.06 | Nexturastat A -0.018 | vemurafenib -0.148 | [5] 0.032 | [6] 0.032 | givinostat 0.045 | barasertib -0.02 | [7] -0.084 | volasertib -0.064 | [8] 0.002 | epoxomicin 0.074 | [9] 0.039 | [10] 0 | [11] -0.129 | rosiglitazone 0.035 | [12] 0.021 | [13] -0.092

Continuation:

MRPS7 (UniProt Q9Y2R9)
inactive: [1] 0.03 | [2] -0.045 | [3] 0.025 | [4] 0.012 | Nexturastat A 0.218 | vemurafenib -0.013 | [5] 0.016 | [6] 0.094 | givinostat 0.059 | barasertib -0.022 | [7] 0.035 | volasertib 0.119 | [8] 0.116 | epoxomicin 0.091 | [9] 0.003 | [10] -0.014 | [11] 0.011 | rosiglitazone -0.019 | [12] -0.008 | [13] 0.117

MSI1 (UniProt O43347)
inactive: [1] 0.061 | [2] 0.002 | [3] -0.034 | [4] 0.049 | Nexturastat A 0.185 | vemurafenib -0.091 | [5] -0.024 | [6] 0.017 | givinostat 0.03 | barasertib -0.092 | [7] 0.164 | volasertib -0.06 | [8] -0.066 | epoxomicin -0.063 | [9] -0.11 | [10] 0.125 | [11] -0.042 | rosiglitazone 0.037 | [12] 0.071 | [13] 0

MYADM (UniProt Q96S97)
inactive: [1] 0.068 | [2] -0.019 | [3] -0.001 | [4] 0.054 | Nexturastat A -0.044 | vemurafenib -0.01 | [5] 0.008 | [6] -0.05 | givinostat -0.035 | barasertib -0.057 | [7] 0.019 | volasertib 0.011 | [8] -0.022 | epoxomicin 0.058 | [9] 0.049 | [10] 0.184 | [11] 0.025 | rosiglitazone 0.042 | [12] 0.085 | [13] -0.051

MRPS30 (UniProt Q9NP92)
inactive: [1] 0.042 | [2] -0.038 | [3] -0.051 | [4] -0.06 | Nexturastat A 0.13 | vemurafenib -0.032 | [5] -0.047 | [6] 0.091 | givinostat -0.036 | barasertib -0.108 | [7] -0.014 | volasertib 0.17 | [8] 0.095 | epoxomicin 0.045 | [9] -0.051 | [10] -0.202 | [11] -0.008 | rosiglitazone 0.021 | [12] 0.053 | [13] 0.12

MTRR isoform 1 (UniProt Q9UBK8)
inactive: [1] 0.049 | [2] -0.086 | [3] 0.056 | [4] -0.041 | Nexturastat A -0.026 | vemurafenib -0.013 | [5] -0.034 | [6] -0.042 | givinostat 0.084 | barasertib 0.022 | [7] 0.009 | volasertib -0.101 | [8] -0.001 | epoxomicin 0.036 | [9] -0.172 | [10] -0.031 | [11] 0.089 | rosiglitazone 0.021 | [12] -0.033 | [13] -0.071

MTR (UniProt Q99707)
inactive: [1] 0.062 | [2] 0.006 | [3] 0.013 | [4] -0.062 | Nexturastat A 0.158 | vemurafenib 0.033 | [5] 0.004 | [6] 0.071 | givinostat 0.026 | barasertib 0.047 | [7] 0.048 | volasertib -0.147 | [8] 0.023 | epoxomicin -0.026 | [9] -0.05 | [10] -0.06 | [11] 0.049 | rosiglitazone 0.04 | [12] 0.175 | [13] 0.081

MRTO4 (UniProt Q9UKD2)
inactive: [1] 0.015 | [2] -0.067 | [3] -0.069 | [4] -0.107 | Nexturastat A 0.209 | vemurafenib 0.114 | [5] 0.136 | [6] 0.159 | givinostat 0.217 | barasertib 0.018 | [7] -0.052 | volasertib -0.431 | [8] 0.08 | epoxomicin -0.257 | [9] -0.16 | [10] 0.209 | [11] 0.057 | rosiglitazone -0.064 | [12] 0.246 | [13] 0.228

MTHFR isoform 2 (UniProt P42898)
inactive: [1] 0.026 | [2] 0.028 | [3] 0.003 | [4] 0.029 | Nexturastat A -0.051 | vemurafenib 0.007 | [5] -0.01 | [6] 0.004 | givinostat -0.027 | barasertib 0.02 | [7] 0 | volasertib 0.021 | [8] 0.017 | epoxomicin 0.038 | [9] -0.009 | [10] -0.01 | [11] 0.024 | rosiglitazone 0.002 | [12] -0.102 | [13] 0.008

MUL1 (UniProt Q969V5)
inactive: [1] -0.061 | [2] -0.015 | [3] 0.01 | [4] -0.004 | Nexturastat A -0.022 | vemurafenib -0.039 | [5] 0.024 | [6] 0.11 | givinostat 0.005 | barasertib 0.005 | [7] 0.061 | volasertib 0 | [8] 0.045 | epoxomicin 0.04 | [10] 0.014 | [11] -0.028 | [12] -0.004 | [13] -0.115

MRPS22 (UniProt P82650)
inactive: [1] 0.041 | [2] -0.029 | [3] 0.022 | [4] -0.018 | Nexturastat A 0.092 | vemurafenib -0.024 | [5] 0.037 | [6] 0.049 | givinostat 0.032 | barasertib -0.055 | [7] 0.007 | volasertib -0.05 | [8] 0.125 | epoxomicin 0.004 | [10] -0.068 | [11] 0.004 | [12] 0.084 | [13] 0.103
